# In the supplement of paper PMC12819154, “High-throughput peptide-centric local stability assay extends protein–ligand identification to membrane proteins, tissues and bacteria” (Nature Structural & Molecular Biology, 2025):
# The list shows a part of the results. Small differences around the control level are noise.
# Compound: CC1(C)S[C@@H]2[C@H](NC(=O)[C@H](N)c3ccccc3)C(=O)N2[C@H]1C(=O)O [ampicillin]
# Test: log2 fold change of tryptic peptide abundance, ligand vs vehicle (limited proteolysis) (log2 ratio); higher = more trypsin-susceptible (destabilized)
# Settings: ligand concentration: 10 uM; sample: E. coli crude lysate
row,Target,log2 fold change
1,"UniProt P37195 (peptide sequence: CLGKVPVTFVPR, peptide start residue: 80)",-0.277
2,"UniProt P37351 (peptide sequence: HEIVAHLVER, peptide start residue: 17)",0.496
3,"UniProt P39409 (peptide sequence: SIYLLAER, peptide start residue: 197)",-0.0854
4,"UniProt P45800 (peptide sequence: ATALTEAVNR, peptide start residue: 447)",0.127
5,"UniProt P45563 (peptide sequence: LSHAQTLAAAELSK, peptide start residue: 249)",-0.102
6,"UniProt P45545 (peptide sequence: SAVIANAQSK, peptide start residue: 270)",-0.079
7,"UniProt P37690 (peptide sequence: SIQADIAAKER, peptide start residue: 42)",-0.477
8,"UniProt P37657 (peptide sequence: GVLVALRPVPGIR, peptide start residue: 391)",-0.239
9,"UniProt P37028 (peptide sequence: QVDQLASLGIK, peptide start residue: 93)",-0.212
10,"UniProt P40719 (peptide sequence: LTLNAHSIK, peptide start residue: 337)",0.133
11,"UniProt P37177 (peptide sequence: RIDYAEAENLAQR, peptide start residue: 705)",-0.417
12,"UniProt P39161 (peptide sequence: KEWLGDHK, peptide start residue: 195)",0.531
13,"UniProt P37610 (peptide sequence: HQVVFLR, peptide start residue: 42)",0.242
14,"UniProt P37692 (peptide sequence: YGLLNDVR, peptide start residue: 114)",-0.583
15,"UniProt P37047 (peptide sequence: IIGSGDRER, peptide start residue: 35)",-0.839
16,"UniProt P37649 (peptide sequence: RIDDPHAAVAILRPLR, peptide start residue: 540)",0.29

# A few values from the results shown.
# In log2 fold change, UniProt P37649 (peptide sequence: RIDDPHAAVAILRPLR, peptide start residue: 540) reads 0.29
# In log2 fold change, UniProt P37195 (peptide sequence: CLGKVPVTFVPR, peptide start residue: 80) reads -0.277

# Next entries.

row,Target,log2 fold change
1,"UniProt P38038 (peptide sequence: YVKDGVLTR, peptide start residue: 505)",0.249
2,"UniProt P36547 (peptide sequence: NQSALEVK, peptide start residue: 168)",0.483
3,"UniProt P36928 (peptide sequence: HHDVPADDDETQALLRR, peptide start residue: 53)",-0.26
4,"UniProt P37188 (peptide sequence: VNEIETYMDGVHLICTTAK, peptide start residue: 41)",0.177
5,"UniProt P45424 (peptide sequence: PQEKAPGR, peptide start residue: 30)",-0.335
6,"UniProt P39451 (peptide sequence: DHHVDVTYK, peptide start residue: 9)",0.324
7,"UniProt P45753 (peptide sequence: ELDMDPDSLR, peptide start residue: 109)",0.158
8,"UniProt P37769 (peptide sequence: LMANEWAK, peptide start residue: 171)",-0.0993
9,"UniProt P39332 (peptide sequence: HSLYAEHR, peptide start residue: 13)",0.0288
10,"UniProt P39280 (peptide sequence: VQGAAHFMVSDDEAR, peptide start residue: 290)",-0.488
11,"UniProt P42624 (peptide sequence: LLGYASLR, peptide start residue: 34)",0.125
12,"UniProt P39336 (peptide sequence: QGHTAIIFPQPDGSTNRYEGK, peptide start residue: 133)",-0.245
13,"UniProt P39172 (peptide sequence: SDEDHHHGDFNMHLWLSPEIAR, peptide start residue: 131)",0.39
14,"UniProt P45524 (peptide sequence: IHGYADAIDYYRQCSAMPMLNR, peptide start residue: 246)",0.841
15,"UniProt P36938 (peptide sequence: NPQEHYNELAK, peptide start residue: 428)",0.372
